# Reference: PubChem BioAssay AID743255 (National Center for Advancing Translational Sciences (NCATS), 2014)
# Chains of the proteins cited; added tags and fusions are not shown. Lines headed by an entry give the natural chain unless they say otherwise; changes in a name come on top.
# UniProt O94782: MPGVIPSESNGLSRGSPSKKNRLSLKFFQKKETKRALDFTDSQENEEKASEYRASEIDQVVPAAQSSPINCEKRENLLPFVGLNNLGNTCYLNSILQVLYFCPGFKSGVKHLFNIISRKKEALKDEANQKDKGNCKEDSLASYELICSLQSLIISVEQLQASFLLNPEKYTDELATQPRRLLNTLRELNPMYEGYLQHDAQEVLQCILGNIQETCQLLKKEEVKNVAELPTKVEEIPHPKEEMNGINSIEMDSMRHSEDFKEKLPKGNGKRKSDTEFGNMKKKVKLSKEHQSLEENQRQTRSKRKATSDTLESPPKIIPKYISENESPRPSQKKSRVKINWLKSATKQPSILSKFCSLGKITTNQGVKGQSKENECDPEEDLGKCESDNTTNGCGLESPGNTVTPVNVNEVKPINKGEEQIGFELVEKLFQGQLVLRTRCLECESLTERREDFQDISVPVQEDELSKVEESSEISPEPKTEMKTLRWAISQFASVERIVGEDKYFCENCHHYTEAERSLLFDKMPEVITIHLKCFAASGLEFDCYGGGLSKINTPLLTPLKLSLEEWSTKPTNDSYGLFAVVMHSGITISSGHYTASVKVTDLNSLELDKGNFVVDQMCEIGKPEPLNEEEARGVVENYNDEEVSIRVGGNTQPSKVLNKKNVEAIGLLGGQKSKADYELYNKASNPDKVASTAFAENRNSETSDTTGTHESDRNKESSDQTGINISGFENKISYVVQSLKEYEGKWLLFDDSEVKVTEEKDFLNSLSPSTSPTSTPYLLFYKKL
# Where “and” joins values, the source holds several entries; their conditions need not be identical. Identical values can stand only once. In all, about 390,000 compounds went through this assay and about 910 (0.23%) were called active. The inconclusive results got no clear call from the source; some entries with a clear call stand among them for comparison. Calls come from the whole dose curve; as a rule, active = well fitted inhibition curve with a large enough effect; inconclusive = small, poorly fitted or top-dose-only effect; inactive = no such curve, though single readings can be large or run the other way. Potencies of inconclusive entries are doubtful fits and often do not repeat.
# Molecular target: Ubiquitin carboxyl-terminal hydrolase 1 (Homo sapiens) (UniProt O94782)
# Assay: Inhibitors of USP1/UAF1: Primary Screen; note: nearly all actives have a fitted effect of over 60% in size
# Conditions: recombinant USP1/UAF1, Ub-Rhodamine cleavage fluorescence; activity change, negative = inhibition: at 57.1 µM (top of the series)
# Summary of the method: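 High-throughput fluorogenic screen: 1nM USP1/UAF1 complex, Ub-Rho substrate 150nM final, 50mM HEPES pH 7.8 with 0.5mM EDTA, 0.1 mg/ml BSA, 1mM TCEP and 0.01% Tween-20.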
# % is set by controls: 0 for no effect and ±100 for the full control effect; potency is the fitted concentration of half-maximal effect.
SMILES,"activity change, negative = inhibition",Potency
Cc1ccc(S(=O)(=O)/C(C#N)=C/c2c[nH]c3ccccc23)cc1,inactive: -6.05%,
CCN(CC)CCNC(=O)c1cc2c(=O)n(C)c3cc(Cl)ccc3c2s1,,"inconclusive: 44.7 µM [inhibitor, single point]"
COc1ccc(-c2cc(C(=O)OCC(=O)NC3CC3)c3ccccc3n2)cc1OC,,"inconclusive: 50.1 µM [inhibitor, partial curve, poor fit]"
COC(=O)c1cc2oc3ccccc3c2n1Cc1ccc(Cl)cc1,,"inconclusive: 39.8 µM [inhibitor, partial curve, poor fit]"
COc1ccc(NC(=O)CS(=O)c2ccc(Cl)c(Cl)c2)cc1 (configuration not stated),inactive: -15.7%,
COC(=O)c1ccc2c(c1)c(-c1ccccc1)c(-c1ccccc1)n2C,,"inconclusive: 63.1 µM [inhibitor, partial curve, poor fit]"
CCn1c2c(c(=O)n3ncc(C(=O)N4CCN(c5ccc(Cl)cc5)CC4)c13)CN(Cc1ccc(OC)cc1)CC2,,"inconclusive: 11.2 µM [inhibitor, partial curve, poor fit]"
Cc1cc2oc(=O)cc(Cn3ncc(Cl)c(Cl)c3=O)c2cc1Cl,,"inconclusive: 0.141 µM [inhibitor, full curve, poor fit]"
CCn1cc(C(=O)N2CCN(c3ccccc3)CC2)c(=O)c2cc(S(=O)(=O)N3CCOCC3)ccc21,,"inconclusive: 8.91 µM [inhibitor, full curve, poor fit]"
CCc1ccccc1OCC(=O)Nc1nc(-c2cccnc2)cs1,,"inconclusive: 25.1 µM [inhibitor, partial curve, poor fit]"
CCCN(CCC)c1nc2c(C)cccn2c(=O)c1/C=C1/SC(=S)N(Cc2ccco2)C1=O,inactive: 123%,
O=C(Nc1cccc(NC(=O)c2cccc(Cl)c2)c1)c1cccnc1,inactive: -8.51%,
COc1ccc(N(Cc2cccs2)C(=O)c2ccc(OC)c(Cl)c2)cc1,,"inconclusive: 0.02 µM [inhibitor, full curve, poor fit]"
CCN1CCc2c(sc(-n3cccc3)c2C(C)NC(=O)Nc2ccc(Br)cc2)C1 (configuration not stated),,"inconclusive: 50.1 µM [inhibitor, partial curve, poor fit]"
NC(=S)NN=Cc1nccc2ccccc12,,"inconclusive: 35.5 µM [inhibitor, single point]"
COc1cc(CNC(=O)c2ccc3c(c2)c(C)c(C)n3Cc2cccc(C)c2)cc(OC)c1OC,,"inconclusive: 31.6 µM [inhibitor, partial curve]"
O=C(Cn1ncc2c3ccccc3n(Cc3cccc(Cl)c3)c2c1=O)Nc1ccc(F)cc1F,,"inconclusive: 56.2 µM [inhibitor, single point]"
CCOc1cc(CNc2ccc3cn[nH]c3c2)ccc1OC,,"inconclusive: 31.6 µM [inhibitor, partial curve]"
O=C1C=C(c2c(O)ccc3ccccc23)c2ccccc2C1=O,,active: 28.2 µM
CCc1ccc(NC(=O)/C(C#N)=C\c2ccc(OC)c(C(=O)O)c2)cc1,,"inconclusive: 0.562 µM [inhibitor, partial curve, poor fit]"
COc1ccc(-c2[nH]c3ccccc3c2SCCNC(=O)c2cc3ccccc3oc2=O)cc1,inactive: -4.45%,

SMILES,"activity change, negative = inhibition",Potency
CC1CCCC(NC(=O)C2c3ccccc3C(=O)N2Cc2cccs2)C1C (configuration not stated),inactive: -9.37%,
O=C1C=C(NC2CCCCC2)CCC1,,"inconclusive: 50.1 µM [inhibitor, partial curve, poor fit]"
O=C(Nc1ccc(F)cc1)C1CCCN(S(=O)(=O)c2ccc3[nH]c(=O)ccc3c2)C1 (configuration not stated),,"inconclusive: 50.1 µM [inhibitor, partial curve, poor fit]"
Cc1ccc(NC(=O)CN2C(=O)COc3ccc(S(=O)(=O)NC4CCCC4)cc32)cc1N(C)C,inactive: 6.25%,
Cc1cc(C)c2c(c1)c(C)cc1nnc(SCc3ccccc3C#N)n12,,"inconclusive: 0.794 µM [inhibitor, full curve]"
C=C1CCN(c2ccc(C(=O)NCCC)cc2[N+](=O)[O-])CC1,,"inconclusive: 44.7 µM [inhibitor, partial curve, poor fit]"
CCOc1ccc(Cn2c(=O)sc3ccccc32)cc1,,"inconclusive: 3.16 µM [inhibitor, partial curve]"
O=C1C=C(c2ccc3[nH]ccc3c2)C[C@@H](c2ccc(F)cc2)C1,,"inconclusive: 7.08 µM [inhibitor, partial curve]"
O=C(N/N=C/c1ccc2c(c1)OCO2)c1ccc(NC(=O)c2ccc(F)cc2)cc1,,"inconclusive: 7.94 µM [inhibitor, partial curve, poor fit]"
COc1cccc(C(=O)N2c3cc(C)ccc3OCC2C(C)(C)C)c1 (configuration not stated),,"inconclusive: 0.251 µM [inhibitor, full curve, poor fit]"
CC(=O)N1CCc2cc(S(=O)(=O)NC(CC(C)C)C(=O)Nc3cc(C)cc(C)c3)ccc21 (configuration not stated),,"inconclusive: 0.562 µM [inhibitor, full curve, poor fit]"
c1ccc2c(-c3ccc(OCCN4CCCCC4)cc3)c(-c3ccsc3)sc2c1,,"inconclusive: 3.16 µM [inhibitor, full curve, poor fit]"
Cc1ccc(CN(C(=O)COc2cc(C)c(Cl)c(C)c2)c2ccccn2)o1,,"inconclusive: 8.91 µM [inhibitor, partial curve]"
Cc1ccc(-c2cc3nc(-c4ccccc4)cc(C(F)(F)F)n3n2)cc1,,"inconclusive: 0.708 µM [inhibitor, full curve, poor fit]"
O=C(Nc1ccc(NC(=S)NC(=O)c2ccco2)cc1)c1ccc(Br)cc1,,"inconclusive: 7.94 µM [inhibitor, full curve, poor fit]"
Cc1ccc(C)c(N(CC(=O)NC2CCCCC2)C(=O)c2snc(C(N)=O)c2N)c1,,"inconclusive: 0.891 µM [inhibitor, partial curve]"
O=C(CN1C(=O)S/C(=C\c2cc(Cl)c(O)c(Cl)c2)C1=O)Nc1ccccc1,inactive: -15.5%,
CCC(C)NS(=O)(=O)c1ccc(NC(=O)c2ccc([N+](=O)[O-])cc2Cl)cc1 (configuration not stated),,"inconclusive: 20 µM [inhibitor, partial curve]"
CC(C)Cn1c(N)c(C(=O)NCc2cccs2)c2nc3ccccc3nc21,,"inconclusive: 44.7 µM [inhibitor, partial curve]"
COc1ccccc1N1CCN(S(=O)(=O)c2c(C)nc3sccn3c2=O)CC1,,"inconclusive: 10 µM [inhibitor, partial curve, poor fit]"
C[C@@H]1CN([C@H](C)CO)C(=O)c2cccc(NC(=O)c3ccncc3)c2O[C@@H]1CN(C)Cc1ccc(C(=O)O)cc1,,"inconclusive: 39.8 µM [inhibitor, partial curve, poor fit]"

SMILES,"activity change, negative = inhibition",Potency
COc1ccc(NC(=O)Cn2c(=O)n(Cc3ccccc3)c(=O)c3sc4ccccc4c32)cc1,,"inconclusive: 44.7 µM [inhibitor, partial curve, poor fit]"
CCCOc1ccc(CNC(=S)Nc2ccccc2)cc1Cl,inactive: -26.2%,
Cc1c(C)c2cc3c(c(C)c2oc1=O)OCN(CCc1ccc(F)cc1)C3,inactive: -14.9%,
CC(C)CC(NC(N)=O)C(=O)Nc1ccc2c(c1)OCO2 (configuration not stated),,"inconclusive: 35.5 µM [inhibitor, partial curve]"
COc1ccc(NC(=O)CSc2nc3ccsc3c(=O)n2CCC(=O)O)cc1,,"inconclusive: 44.7 µM [inhibitor, partial curve]"
Cc1nn2c(C)c(C(=O)NC(C)(C)C)cnc2c1-c1ccc(F)cc1,inactive: -9.27%,
Cc1ccc2nc(SCC(=O)N3N=C(c4cccs4)CC3c3ccc(F)cc3)nc(=O)n2c1 (configuration not stated),inactive: 2.24%,
COCCCNC(=O)c1ccc(-n2nc(C(F)(F)F)cc2-c2cccs2)cc1,inactive: -8.38%,
Cc1ccc(CN(C(=O)COc2ccc(Br)cc2)C2CCS(=O)(=O)C2)o1 (configuration not stated),inactive: -21.5%,
Oc1ccc(NCc2ccccc2OCc2ccccc2F)cc1,,"inconclusive: 35.5 µM [inhibitor, partial curve, poor fit] and inconclusive: 31.6 µM [inhibitor, partial curve, poor fit]"
O=C(CCSc1ccccc1)Nc1ncccn1,,"inconclusive: 0.251 µM [inhibitor, full curve, poor fit]"
CC1CN(C)C(C)C/C1=N/Oc1ccccc1[N+](=O)[O-] (configuration not stated),,"inconclusive: 79.4 µM [inhibitor, partial curve, poor fit]"
CC(C)(C)N1C(=O)Cc2c1nc(N)c1c(N)nc(N3CCCCC3CO)c(C#N)c21 (configuration not stated),,"inconclusive: 39.8 µM [inhibitor, partial curve, poor fit]"
Nc1ccc(Cc2nc3c(ccc4ccccc43)[nH]2)cc1,,"inconclusive: 31.6 µM [inhibitor, partial curve]"
NC(=O)c1ncn([C@@H]2O[C@H](CNCc3cnc(N4CCOCC4)nc3)[C@@H](O)[C@H]2O)n1,,"inconclusive: 0.0708 µM [inhibitor, full curve, poor fit]"
Cc1cccc(C(=O)NCC(=O)OCc2cc(=O)n3nc(C4CCCCC4)sc3n2)c1,,"inconclusive: 50.1 µM [inhibitor, partial curve, poor fit]"
COc1ccc(CN2CC(=O)N(c3ccc(C)c(C)c3)C2=S)cc1OC,inactive: -7.67%,
Cc1ccc(N=C(NOCc2ccc(Cl)cc2Cl)c2nonc2N)c(C)c1,inactive: -19.8%,
COc1cccc(C(=O)NCC(=O)N/N=C(C)\C=C\c2ccccc2)c1,,"inconclusive: 10 µM [inhibitor, partial curve, poor fit]"
CCOC(=O)CCCCC(=O)c1[nH]c(=O)[nH]c1CSc1nc2ccccc2[nH]1,,"inconclusive: 1 µM [inhibitor, full curve, poor fit]"
